Experimental data reported in PubChem BioAssay AID1347075 (National Center for Advancing Translational Sciences (NCATS), 2019).
Among all 400,000 compounds or so, about 5,500 (1.4%) were called active. This list was built around the results that the source calls inconclusive (neither active nor inactive); the mix of calls is not that of the screen. Calls come from the whole dose curve; as a rule, active = well fitted cell-killing curve with a large enough effect; inconclusive = small, poorly fitted or top-dose-only effect, or effect the other way; inactive = flat fitted curve, though single readings scatter. A potency beside an inconclusive call is a rough fit, not a confirmed value.

Test: qHTS assay for MDR1-selective chemotherapeutics: Primary screen using the parental adenocarcinoma cell KB-3-1; note: nearly all actives have a fitted effect of over 60% in size
Conditions: KB-3-1 viability, CellTiter-Glo ATP luminescence, 72 h; activity change, negative = cytotoxic: at 46.1 µM (top of the series)
Method in brief: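 Cytotoxicity measured as CellTiter-Glo luminescence after 72 h at 37 C. Compound titrations were pinned onto drug-naive KB-3-1 parental adenocarcinoma cells grown in DMEM with 10% FBS, and normalized data fitted to concentration-response curves.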
% is set by controls: 0 for no effect and ±100 for the full control effect; potency is the fitted concentration of half-maximal effect.

Row | Compound | Potency | activity change, negative = cytotoxic
1 | COc1ccc(C(=O)NC(=S)Nc2cccc3cc(O)ccc23)cc1OC | inconclusive: 4.11 µM [rising, full curve] | 
2 | O=C(NC(=S)Nc1cc(Cl)ccc1O)c1cccc(Br)c1 | inactive | 
3 | Cc1cccc(NC(=O)c2ccc(OCc3c(C)noc3C)cc2)c1C | inconclusive: 29.1 µM [cytotoxic, single point] | 
4 | CCCCOc1ccc(N=Cc2cccs2)cc1 | inconclusive: 18.4 µM [cytotoxic, partial curve] | 
5 | Cc1ccc(C(=O)Nc2sc3c(c2C(=O)O)CCCCC3)o1 | active: 16.4 µM | 
6 | C[C@H]1CN([C@@H](C)CO)C(=O)Cc2cc(NS(=O)(=O)c3cn(C)cn3)ccc2O[C@@H]1CN(C)C(=O)Nc1ccc(F)cc1 | inactive | 
7 | CCOc1cccc(-n2nnnc2-c2ccc(OC)cc2)c1 | inconclusive: 3.66 µM [cytotoxic, partial curve, poor fit] | 
8 | Cc1n[nH]c(=O)c2c(NC(=O)CSc3ccc(Br)cc3)oc(C)c12 | inactive | 
9 | COc1cc2ccccc2cc1C(=O)N1CCN(C(C)=O)CC1 | inactive | 
10 | COc1ccc(-c2nc(C)c(CCNS(=O)(=O)c3ccc(F)cc3)s2)cc1OC | inconclusive: 29.1 µM [cytotoxic, single point] | 
11 | O=C(N/N=C(\c1ccccc1)c1ccccn1)c1ccccc1Cl | inconclusive: 2.59 µM [cytotoxic, full curve] | 
12 | Cc1cccc(N2CCN(C(=O)c3csc4ccccc34)CC2C)c1 (stereo not given) | inconclusive: 29.1 µM [cytotoxic, single point] | 
13 | O=C(C[C@H]1C[C@H](C(=O)N2CCOCC2)[C@@]2(CCC3CCCC3)c3[nH]c4cc(-c5ccco5)ccc4c3CCN2C1=O)NCc1ccco1 | inconclusive: 20.6 µM [cytotoxic, single point] | 
14 | O=C(COc1ccc(Cl)cc1)NNC(=O)c1ccccn1 | inconclusive: 18.4 µM [cytotoxic, single point] | 
15 | Cc1cccc(COCC(Cc2ccccc2)N2CCN(C(=O)c3cc(Cl)cc(Cl)c3)CCC2=O)c1 (stereo not given) | inconclusive: 29.1 µM [cytotoxic, single point] | 
16 | Cc1nnc(SCc2nnc(-c3ccccc3Br)o2)s1 | inactive | 
17 | CC(C)c1ccc(CN(Cc2ccco2)c2cnc(S(C)(=O)=O)nc2C(=O)Nc2ccccc2)cc1 | inactive | 
18 | CCOc1c(Cl)cc(CNCc2ccccn2)cc1OC | inactive | 
19 | Cc1cc2c3c(c1)C1(SCC(=O)N1c1ccc(F)cc1)C(=O)N3C(C)(C)CC2C (stereo not given) | inconclusive: 29.1 µM [cytotoxic, single point] | 
20 | O=S(=O)(NCC1CCCO1)c1ccc(Oc2ccccc2)cc1 (stereo not given) | inconclusive: 29.1 µM [cytotoxic, single point] | 
21 | O=C(N/N=C/c1ccc2c(c1)OCO2)c1ccc(Cn2cc([N+](=O)[O-])cn2)o1 | inconclusive: 18.4 µM [rising, single point] | 
22 | Cc1cccc(NC(=O)Nc2cccc(Oc3c(F)c(F)c(F)c(F)c3F)c2)c1 | inconclusive: 29.1 µM [cytotoxic, single point] | 
23 | OC1(c2ccc(OC(F)F)cc2)CSC(=Nc2cccnc2)N1Cc1ccco1 (stereo not given) | inactive | 
24 | COc1ccc(NC(=O)N(C)C[C@H]2OCCCC[C@@H](C)Oc3ccc(N(C)C)cc3C(=O)N([C@H](C)CO)C[C@@H]2C)cc1 | inconclusive: 4.11 µM [rising, full curve, poor fit] | 

Single records, from the list above.
`COc1ccc(C(=O)NC(=S)Nc2cccc3cc(O)ccc23)cc1OC` is listed with Potency: inconclusive: 4.11 µM [rising, full curve]
`COc1cc2ccccc2cc1C(=O)N1CCN(C(C)=O)CC1` is listed with Potency: inactive

Continuation:

Row | Compound | Potency | activity change, negative = cytotoxic
25 | CCSc1nc2ccccc2c(=O)n1CCc1ccc(OC)c(OC)c1 | inconclusive: 18.4 µM [cytotoxic, single point] | 
26 | CC(=O)c1ccc2c(c1)N(C)c1ccccc1S2 | inconclusive: 29.1 µM [cytotoxic, single point] | 
27 | O=C(c1cnc2c(c1)COc1ccccc1-2)c1ccccc1O | inconclusive: 23.1 µM [cytotoxic, single point] | 
28 | CCCOc1ccccc1C1C(C(=O)OC)=CN(C(C)C)C=C1C(=O)OC | inconclusive: 18.4 µM [cytotoxic, partial curve, poor fit] | 
29 | CCN1C(=O)[C@H]2[C@@H](c3ccc(SC4CCCCC4)cc3)N[C@@](CC(C)C)(C(=O)OC)[C@H]2C1=O | inconclusive: 29.1 µM [cytotoxic, single point] | 
30 | COc1ccc(-c2nc(-c3ccccc3)c(-c3cc([N+](=O)[O-])ccc3C)[nH]2)cc1OC | inconclusive: 29.1 µM [cytotoxic, single point] | 
31 | CCOC(=O)Cn1c(=O)n(C2CCCCC2)c2nc(-c3ccc(OC)cc3)nc(C(N)=O)c21 |  | inconclusive: 4.58%
32 | Nc1ccc(C(=O)Nc2ccccc2N)cc1 | inconclusive: 7.31 µM [cytotoxic, partial curve] | 
33 | c1ccc(CC2CNc3ccccc3CN2)cc1 (stereo not given) | inactive | 
34 | Cc1ccc(OCC(=O)NNC(=O)C2CCN(c3ncccn3)CC2)cc1 | inconclusive: 23.1 µM [rising, single point] | 
35 | CCCn1c(SCC(=O)c2ccc3c(c2)OCCO3)nnc1C(C)C | inconclusive: 29.1 µM [cytotoxic, single point] | 
36 | O=C(c1cc(-c2ccc(Cl)c(Cl)c2)on1)N1CCOCC1 | inactive | 
37 | COc1ccc(-c2ccc(C(=O)Nc3cccc(F)c3)c3occc23)c(C)c1 | inactive | 
38 | Cn1ncc2c(Nc3ccc(Cl)c(Cl)c3)ncnc21 | inactive | 
39 | CC(C)C[C@H]1CN([C@@H](CC(C)C)CN2CCC[C@H]2CN2C(=O)C(=O)NC[C@@H]2Cc2ccc(O)cc2)C(=O)C(=O)N1CC1CCCCCC1 | inconclusive: 29.1 µM [cytotoxic, single point] | 
40 | O=C(NNC1CC(=O)N(c2ccc3c(c2)OCCO3)C1=O)c1ccccc1 (stereo not given) | inconclusive: 18.4 µM [cytotoxic, single point] | 
41 | Cc1ccccc1CC(=O)NC1CCN(Cc2ccccc2)CC1 | inactive | 
42 | CN1CCN(CCNC(=O)Cn2c(=O)c3cccn3c3ccc(F)cc32)CC1 | inactive | 
43 | Cc1cccc(N2CCN(C(=O)CSc3nc4ccccc4nc3N3CC(C)OC(C)C3)CC2)c1C (stereo not given) | inconclusive: 23.1 µM [cytotoxic, single point] | 
44 | CCC(=O)c1cc(F)c(N2CCN(C(=O)Cc3ccccc3)CC2)cc1C | inactive | 
45 | COc1cc(C#Cc2c(-c3cncn3C)n(C)c3ccc(-c4ccc(OC)nc4)cc23)cc(OC)c1 | inconclusive: 18.4 µM [cytotoxic, single point] | 
46 | Cc1cc(C)c(NC(=O)CSc2nc3ccc(N4C(=O)c5ccccc5C4=O)cc3s2)c(C)c1 | inactive | 
47 | CCn1c2ccccc2c2cc(NC(=O)COC(=O)C3CCC(=O)N3)ccc21 (stereo not given) | inconclusive: 32.6 µM [cytotoxic, single point] | 
48 | Cc1cc2c(cc1C)N(C(=O)CCl)CC(=O)N2 | inconclusive: 18.4 µM [cytotoxic, single point] | 

Row | Compound | Potency | activity change, negative = cytotoxic
49 | COc1ccccc1/C=C/C(=O)N1CCc2cc(OC)c(OC)cc2C1C (stereo not given) | inactive | 
50 | O=C(COc1ccc(C(=O)c2ccccc2)cc1)NC1CCCCCC1 | inconclusive: 29.1 µM [cytotoxic, single point] | 
51 | Cc1cc(-c2ccccc2)oc(=O)c1NC(=O)c1ccccc1 | inconclusive: 18.4 µM [cytotoxic, single point] | 
52 | Cc1ccc(NC(=O)Nc2cccs2)cc1 | inconclusive: 3.66 µM [cytotoxic, partial curve, poor fit] | 
53 | COCCCNC(=O)c1cc2c(=O)n(C)c3ccccc3c2n1C | active: 10.3 µM | 
54 | CCCCCn1c(C)c2c(OCC)cccc(=O)c2c1C | inconclusive: 20.6 µM [cytotoxic, single point] | 
55 | Cc1ccc(C(=O)O)cc1-n1c(=O)n(Cc2ccccc2)c(=O)c2[nH]cnc21 | inactive | 
56 | CC1=C(C)CC(C(=O)N2CCN(Cc3ccc4c(c3)OCO4)CC2)C(C(=O)O)C1 (stereo not given) | inconclusive: 29.1 µM [rising, single point] | 
57 | Cc1nc(-c2cccc(NC(=O)c3ccc(Br)o3)c2)cs1 | inconclusive: 29.1 µM [rising, partial curve, poor fit] | 
58 | C=CCOc1cccc(C2C(C(=O)c3cc4ccccc4o3)=C(O)C(=O)N2c2cc(C)on2)c1 (stereo not given) | inactive | 
59 | Cc1ccc(OCCCc2c(C)n[nH]c2C)cc1 | inconclusive: 29.1 µM [cytotoxic, single point] | 
60 | CCOC(=O)C(C)(C)Sc1ncnc2nc[nH]c12 | inactive | 
61 | C=CCc1c(C)nc2ccc(C(=O)OCC)cc2c1Cl | inconclusive: 16.4 µM [cytotoxic, single point] | 
62 | O=C(CCN1C(=O)c2cccc3cccc(c23)C1=O)N1CCOCC1 | inactive | 
63 | Cc1noc(C)c1C(=O)N1CCN(c2ccc(OCc3ccccc3)cc2)CC1 |  | inconclusive: 0%
64 | COc1ccc(-n2nc3c(N4CCC(C(=O)NCc5cccc(C)c5)CC4)nnc(C)c3c2C)cc1 | inactive | 
65 | O=S(=O)(c1cccs1)N1CCN(c2ccc(Cl)cc2)CC1 | inconclusive: 18.4 µM [cytotoxic, single point] | 
66 | COc1ccc(CN2CCN(Cc3cc4ccccc4o3)CC2CCO)cc1C (stereo not given) | inactive | 
67 | Cc1ccc(C(=O)Nc2nc(-c3ccccn3)cs2)o1 | inconclusive: 2.91 µM [cytotoxic, full curve] | 
68 | COC(=O)c1c(NC(=O)c2ccccc2OC)sc(C(=O)N2CCOCC2)c1C | inconclusive: 0.0651 µM [rising, full curve] | 
69 | CCOc1cc(/C=C(/C#N)c2nc3ccccc3[nH]2)ccc1OCc1ccc(C(=O)O)o1 | inconclusive: 4.11 µM [rising, partial curve, poor fit] | 
70 | CCS(=O)(=O)Nc1ccc(C2=NN(C(=O)c3ccco3)C(c3ccc(Cl)o3)C2)cc1 (stereo not given) | inconclusive: 29.1 µM [cytotoxic, single point] | 

Some of the entries so far, with tabs:
Row	Compound	Potency	activity change, negative = cytotoxic
49	COc1ccccc1/C=C/C(=O)N1CCc2cc(OC)c(OC)cc2C1C (stereo not given)	inactive	
50	O=C(COc1ccc(C(=O)c2ccccc2)cc1)NC1CCCCCC1	inconclusive: 29.1 µM [cytotoxic, single point]	
51	Cc1cc(-c2ccccc2)oc(=O)c1NC(=O)c1ccccc1	inconclusive: 18.4 µM [cytotoxic, single point]	
52	Cc1ccc(NC(=O)Nc2cccs2)cc1	inconclusive: 3.66 µM [cytotoxic, partial curve, poor fit]	
53	COCCCNC(=O)c1cc2c(=O)n(C)c3ccccc3c2n1C	active: 10.3 µM	
54	CCCCCn1c(C)c2c(OCC)cccc(=O)c2c1C	inconclusive: 20.6 µM [cytotoxic, single point]	
55	Cc1ccc(C(=O)O)cc1-n1c(=O)n(Cc2ccccc2)c(=O)c2[nH]cnc21	inactive	
56	CC1=C(C)CC(C(=O)N2CCN(Cc3ccc4c(c3)OCO4)CC2)C(C(=O)O)C1 (stereo not given)	inconclusive: 29.1 µM [rising, single point]	
57	Cc1nc(-c2cccc(NC(=O)c3ccc(Br)o3)c2)cs1	inconclusive: 29.1 µM [rising, partial curve, poor fit]	
58	C=CCOc1cccc(C2C(C(=O)c3cc4ccccc4o3)=C(O)C(=O)N2c2cc(C)on2)c1 (stereo not given)	inactive	
59	Cc1ccc(OCCCc2c(C)n[nH]c2C)cc1	inconclusive: 29.1 µM [cytotoxic, single point]	
60	CCOC(=O)C(C)(C)Sc1ncnc2nc[nH]c12	inactive	
61	C=CCc1c(C)nc2ccc(C(=O)OCC)cc2c1Cl	inconclusive: 16.4 µM [cytotoxic, single point]	
62	O=C(CCN1C(=O)c2cccc3cccc(c23)C1=O)N1CCOCC1	inactive	
63	Cc1noc(C)c1C(=O)N1CCN(c2ccc(OCc3ccccc3)cc2)CC1		inconclusive: 0%
64	COc1ccc(-n2nc3c(N4CCC(C(=O)NCc5cccc(C)c5)CC4)nnc(C)c3c2C)cc1	inactive	
65	O=S(=O)(c1cccs1)N1CCN(c2ccc(Cl)cc2)CC1	inconclusive: 18.4 µM [cytotoxic, single point]	
66	COc1ccc(CN2CCN(Cc3cc4ccccc4o3)CC2CCO)cc1C (stereo not given)	inactive	
67	Cc1ccc(C(=O)Nc2nc(-c3ccccn3)cs2)o1	inconclusive: 2.91 µM [cytotoxic, full curve]	
68	COC(=O)c1c(NC(=O)c2ccccc2OC)sc(C(=O)N2CCOCC2)c1C	inconclusive: 0.0651 µM [rising, full curve]	
69	CCOc1cc(/C=C(/C#N)c2nc3ccccc3[nH]2)ccc1OCc1ccc(C(=O)O)o1	inconclusive: 4.11 µM [rising, partial curve, poor fit]	
